No constants are given. Whether binding was seen depends on the method and setting. A result given as binding can be weak or reduced; the word gives no strength. Tags and fused reporters may be left off the sequences shown.

Protein sequences, listed by entry. Tags and fused reporters are not part of them. Lines headed by an entry give the natural chain unless they say otherwise; changes in a name come on top.
UniProt P01350: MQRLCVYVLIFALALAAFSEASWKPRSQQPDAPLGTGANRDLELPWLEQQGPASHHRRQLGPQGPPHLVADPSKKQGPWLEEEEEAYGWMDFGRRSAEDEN

This assay addresses truncated form of the human gastrin/CCK-B receptor (human). As to the kind of experiment: confocal fluorescence microscopy of transfected NIH3T3 cells.

B1: rhodal green labeled heptagastrin (ligand, UniProt P01350 86-92, looked up)
peptide: AYGWMDF
modifications: rhodal green label
As to B1, the binding result is given as “binds”.

Values taken from patent US20040001842A1.
